The subject of data set [1] is small cell lung cancer samples. The data set can be described thus: Identification and label-free LC-MS quantitation of HLA-presented peptides on tumor versus normal tissues (presentation profile/score). The arrangement: species or system human; key: very highly over-presented on tumors compared to a panel of normal tissues (+++); highly over-presented on tumors compared to a panel of normal tissues (++); over-presented on tumors compared to a panel of normal tissues (+). The conditions noted are these: small cell lung cancer tumors compared to a panel of normal tissues.

Data set [2] deals with other cancer tissues and cancer cell lines. Nature of the data set: Additional LC-MS detection of the peptide on other cancer samples and cell lines (FIG. 1A-1D). The arrangement: species or system human.

The text below walks through data of patent publication US10597433B2, “Peptides and combination of peptides for use in immunotherapy against small cell lung cancer and other cancers” (Immatics Biotechnologies GmbH, priority 2015, dated 2020).

Regarding “98 (ALVDHLNVGV; listed as Homo sapiens) [compound 98]”, the “Peptide Presentation (presentation score)” value (“Peptide Presentation” for short) in data set [1] is “+”.

As for “99 (QMLEAIKALEV; listed as Homo sapiens) [compound 99]”, the “Peptide Presentation” value in data set [1] is “++”.

Take “100 (VADPETRTV; listed as Homo sapiens) [compound 100]”: the “Peptide Presentation” value in data set [1] is “+”.

In the case of “101 (AMNSQILEV; listed as Homo sapiens) [compound 101]”, in data set [1], the “Peptide Presentation” value is listed as “+”.

For “103 (SLLEYQMLV; listed as Homo sapiens) [compound 103]”, the “Peptide Presentation” value in data set [1] was “+”.

Take “105 (SMYDKVLML; listed as Homo sapiens) [compound 105]”: the “Peptide Presentation” value in data set [1] is “+”.

Consider “106 (KMPDDVWLV; listed as Homo sapiens) [compound 106]”, for which, in data set [1], the “Peptide Presentation” value was “+”.

For the substance “107 (AMYGTKLETI; listed as Homo sapiens) [compound 107]”, the “Peptide Presentation” value in data set [1] is given as “+”.

As for “110 (GLTETGLYRI; listed as Homo sapiens) [compound 110]”, the “Peptide Presentation” value in data set [1] is listed as “+++”.

Consider “111 (FLPEAPAEL; listed as Homo sapiens) [compound 111]”, for which the “Peptide Presentation” value in data set [1] is “+++”.

As for “112 (LLLPGVIKTV; listed as Homo sapiens) [compound 112]”, the “Peptide Presentation” value in data set [1] is recorded as “+++”.

Take “114 (ALLEPGGVLTI; listed as Homo sapiens) [compound 114]”: the “Peptide Presentation” value in data set [1] is on record as “+++”.

For the substance “115 (ALLPSDCLQEA; listed as Homo sapiens) [compound 115]”, the “Peptide Presentation” value in data set [1] is listed as “+++”.

For the substance “116 (ALLVRLQEV; listed as Homo sapiens) [compound 116]”, the “Peptide Presentation” value in data set [1] is given as “+++”.

In the case of “117 (FLLDSAPLNV; listed as Homo sapiens) [compound 117]”, the “Peptide Presentation” value in data set [1] was “+”.

For the substance “118 (KLPSFLANV; listed as Homo sapiens) [compound 118]”, the “Peptide Presentation” value in data set [1] is “+++”.

With “119 (SLIDDNNEINL; listed as Homo sapiens) [compound 119]”, the “Peptide Presentation” value in data set [1] is on record as “+”.

For the substance “120 (SLAADIPRL; listed as Homo sapiens) [compound 120]”, the “Peptide Presentation” value in data set [1] is “++”.

Take “121 (YMLEHVITL; listed as Homo sapiens) [compound 121]”: the “Peptide Presentation” value in data set [1] is “+”.

Turning to “124 (SLITDLQTI; listed as Homo sapiens) [compound 124]”, the “Peptide Presentation” value in data set [1] was “++”.

For the substance “125 (LLSEPSLLRTV; listed as Homo sapiens) [compound 125]”, the “Peptide Presentation” value in data set [1] is “+++”.

For the substance “126 (AAASLIRLV; listed as Homo sapiens) [compound 126]”, in data set [1], the “Peptide Presentation” value is recorded as “+++”.

Take “AMLEEVNYI (listed as Homo sapiens) [SEQ ID NO: 1]”: the “peptide detected on samples (positive/measured)” value in data set [2] (Non-Hodgkin lymphomas) is reported as 4/16; in data set [2] (chronic lymphocytic leukemias) it was 2/17; in data set [2] (colorectal cancer) it was 1/27; in data set [2] (pancreatic cancer cell lines), 1/20; in data set [2] (pancreatic cancers), 3/19.

For the substance “GLDPTQFRV (listed as Homo sapiens) [SEQ ID NO: 39]”, the “peptide detected on samples (positive/measured)” value in data set [2] (Non-Hodgkin lymphomas) is 1/16; in data set [2] (ovarian cancers) it was 1/20; in data set [2] (pancreatic cancer cell lines) it was 1/20; in data set [2] (urinary bladder cancer), 1/20.

Take “GLLEVQVEV (listed as Homo sapiens) [SEQ ID NO: 40]”: the “peptide detected on samples (positive/measured)” value in data set [2] (ovarian cancers) and in data set [2] (pancreatic cancer cell lines) was 1/20 each time.

Regarding “VLAEIDPKQLV (listed as Homo sapiens) [SEQ ID NO: 3]”, the entries for the “peptide detected on samples (positive/measured)” value in data set [2] (esophageal cancer), in data set [2] (liver cancers) and in data set [2] (ovarian cancers) were 1/20, 2/16 and 2/20, respectively.
